Measured data: PubChem BioAssay AID1259308 (NCATS, 2017)
Shown is an unselected part of about 59,000 reagents. Of all reagents, about 1,510 (2.6%) got an active call. 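Calls use total luciferase alone and ignore viability, so some active siRNAs may act by altering cell number.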 Reagents against one gene are numbered here. Further read-outs or replicates are left out here.

Screen: 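Candidate targets for better recombinant protein yield in mammalian cells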 (primary screen)
Cell system: human HEK293 embryonic kidney cells stably expressing firefly luciferase (HEK-CMV-Luc2-Hygro)
Reagent: single siRNA against human genes, 0.8 pmol siRNA per well
Time to read-out: 72 h
Read-out: 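Luciferase light (ONE-Glo) measured on one replicate plate set and viability (CellTiter-Glo) on the other, scaled to a negative control siRNA, with robust z-scores and luciferase per cell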
Direction: total luciferase, z-score and total luciferase, % of control: higher = more reporter protein produced
Hit rule: 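An siRNA counts as active if its total luciferase robust z-score exceeds 3; genes with two or more such siRNAs out of three were retested with fresh siRNAs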
Calls: active = raised luciferase; inactive = no rise

For KIF4A (kinesin family member 4A) #1, what was measured?
total luciferase, z-score: 0.272; total luciferase, % of control: 87.3; Outcome: inactive

For KIF4A (kinesin family member 4A) #2, how do the results read?
total luciferase, z-score: 1.24; total luciferase, % of control: 107; Outcome: inactive

For KIF4A (kinesin family member 4A) #3, what does the deposit list?
total luciferase, z-score: -0.118; total luciferase, % of control: 79.5; Outcome: inactive

For ZAR1L (zygote arrest 1 like) #1, what was measured?
total luciferase, z-score: 1.72; total luciferase, % of control: 116; Outcome: inactive

For ZAR1L (zygote arrest 1 like) #2, how do the results read?
total luciferase, z-score: 2; total luciferase, % of control: 122; Outcome: inactive

What is on record for ZAR1L (zygote arrest 1 like) #3?
total luciferase, z-score: 0.441; total luciferase, % of control: 90.7; Outcome: inactive

For PTDSS2 (phosphatidylserine synthase 2) #1, how do the results read?
total luciferase, z-score: -0.431; total luciferase, % of control: 73.3; Outcome: inactive

What did the screen give for PTDSS2 (phosphatidylserine synthase 2) #2?
total luciferase, z-score: 1.5; total luciferase, % of control: 112; Outcome: inactive

With PTDSS2 (phosphatidylserine synthase 2) #3, what does the deposit list?
total luciferase, z-score: -1.73; total luciferase, % of control: 47.5; Outcome: inactive

With ACAD9 (acyl-CoA dehydrogenase family member 9) #1, how do the results read?
total luciferase, z-score: 0.226; total luciferase, % of control: 86.4; Outcome: inactive

For ACAD9 (acyl-CoA dehydrogenase family member 9) #2, what was measured?
total luciferase, z-score: -0.104; total luciferase, % of control: 79.8; Outcome: inactive

With ACAD9 (acyl-CoA dehydrogenase family member 9) #3, what does the deposit list?
total luciferase, z-score: -2.55; total luciferase, % of control: 31.1; Outcome: inactive

Which result is listed for ANGPTL1 (angiopoietin like 1) #1?
total luciferase, z-score: -0.0564; total luciferase, % of control: 80.8; Outcome: inactive

With ANGPTL1 (angiopoietin like 1) #2, how do the results read?
total luciferase, z-score: 0.901; total luciferase, % of control: 99.8; Outcome: inactive

Which result is listed for ANGPTL1 (angiopoietin like 1) #3?
total luciferase, z-score: 0.621; total luciferase, % of control: 94.2; Outcome: inactive

Just “total luciferase, % of control” (2 entries from above):
ZAR1L (zygote arrest 1 like) #3	90.7
PTDSS2 (phosphatidylserine synthase 2) #1	73.3

Next results:
What is on record for RNF13 (ring finger protein 13) #1?
total luciferase, z-score: -0.616; total luciferase, % of control: 69.6; Outcome: inactive

Which result is listed for RNF13 (ring finger protein 13) #2?
total luciferase, z-score: -0.886; total luciferase, % of control: 64.3; Outcome: inactive

With RNF13 (ring finger protein 13) #3, what was measured?
total luciferase, z-score: -0.115; total luciferase, % of control: 79.6; Outcome: inactive

What did the screen give for KCNH8 (potassium voltage-gated channel subfamily H member 8) #1?
total luciferase, z-score: 1.41; total luciferase, % of control: 110; Outcome: inactive

What did the screen give for KCNH8 (potassium voltage-gated channel subfamily H member 8) #2?
total luciferase, z-score: -0.0355; total luciferase, % of control: 81.2; Outcome: inactive

For KCNH8 (potassium voltage-gated channel subfamily H member 8) #3, what was measured?
total luciferase, z-score: -1.93; total luciferase, % of control: 43.5; Outcome: inactive

With ASF1B (anti-silencing function 1B histone chaperone) #1, what does the deposit list?
total luciferase, z-score: -2.13; total luciferase, % of control: 39.5; Outcome: inactive

What is on record for ASF1B (anti-silencing function 1B histone chaperone) #2?
total luciferase, z-score: 0.587; total luciferase, % of control: 93.6; Outcome: inactive

With ASF1B (anti-silencing function 1B histone chaperone) #3, what does the deposit list?
total luciferase, z-score: -1.31; total luciferase, % of control: 55.8; Outcome: inactive

With CUL9 (cullin 9) #1, how do the results read?
total luciferase, z-score: -0.0548; total luciferase, % of control: 80.8; Outcome: inactive

With CUL9 (cullin 9) #2, what was measured?
total luciferase, z-score: 0.581; total luciferase, % of control: 93.4; Outcome: inactive

With CUL9 (cullin 9) #3, what does the deposit list?
total luciferase, z-score: -0.912; total luciferase, % of control: 63.7; Outcome: inactive

For PTPRR (protein tyrosine phosphatase receptor type R) #1, how do the results read?
total luciferase, z-score: 0.584; total luciferase, % of control: 93.5; Outcome: inactive

What is on record for PTPRR (protein tyrosine phosphatase receptor type R) #2?
total luciferase, z-score: 0.33; total luciferase, % of control: 88.4; Outcome: inactive

Which result is listed for PTPRR (protein tyrosine phosphatase receptor type R) #3?
total luciferase, z-score: 1.21; total luciferase, % of control: 106; Outcome: inactive

How did the screen score LRCH2 #1?
total luciferase, z-score: 0.165; total luciferase, % of control: 85.2; Outcome: inactive

For LRCH2 #2, how do the results read?
total luciferase, z-score: -0.316; total luciferase, % of control: 75.6; Outcome: inactive

What did the screen give for LRCH2 #3?
total luciferase, z-score: 0.105; total luciferase, % of control: 84; Outcome: inactive
